From article PMC12133150
These are yes or no findings as the source states them, for the method shown. Binding seen in cells or lysates may run through a third protein. Some entries that bind do so weakly or less than the wild type.

Legend:
[1] = molecular target: Ten-eleven translocation 2 (TET2) (human (endogenous in HepG2)) (UniProt Q6N021); assay: co-IP; endogenous proteins of HepG2 cells, NP40 lysate; TET2 antibody and protein A beads, 3 hr at 4°C, then western blot; cells with or without glucagon, and with or without metformin (10 mM)
[2] = molecular target: Ten-eleven translocation 2 (TET2) (human (endogenous in HepG2)) (UniProt Q6N021); assay: co-IP; HepG2 cells transfected with HNF4α wild-type or S313 mutants, NP40 lysate; TET2 antibody and protein A beads, 3 hr at 4°C, then western blot

binding [1]	binding [2]	Binder
binds	–	hepatocyte nuclear factor 4 alpha (HNF4α) (protein, UniProt P41235 1-474) MRLSKTLVDMDMADYSAALDPAYTTLEFENVQVLTMGNDTSPSEGTNLNAPNSLGVSALCAICGDRATGKHYGASSCDGCKGFFRRSVRKNHMYSCRFSRQCVVDKDKRNQCRYCRLKKCFRAGMKKEAVQNERDRISTRRSSYEDSSLPSINALLQAEVLSRQITSPVSGINGDIRAKKIASIADVCESMKEQLLVLVEWAKYIPAFCELPLDDQVALLRAHAGEHLLLGATKRSMVFKDVLLLGNDYIVPRHCPELAEMSRVSIRILDELVLPFQELQIDDNEYAYLKAIIFFDPDAKGLSDPGKIKRLRSQVQVSLEDYINDRQYDSRGRFGELLLLLPTLQSITWQMIEQIQFIKLFGMAKIDNLLQEMLLGGSPSDAPHAHHPLHPHLMQEHMGTNVIVANTMPTHLSNGQMCEWPRPRGQAATPETPQPSPPGGSGSEPYKLLPGAVATIVKPLSAIPQPTITKQEVI
–	binds	HNF4α wild-type (transfected) (protein, UniProt P41235 1-474) MRLSKTLVDMDMADYSAALDPAYTTLEFENVQVLTMGNDTSPSEGTNLNAPNSLGVSALCAICGDRATGKHYGASSCDGCKGFFRRSVRKNHMYSCRFSRQCVVDKDKRNQCRYCRLKKCFRAGMKKEAVQNERDRISTRRSSYEDSSLPSINALLQAEVLSRQITSPVSGINGDIRAKKIASIADVCESMKEQLLVLVEWAKYIPAFCELPLDDQVALLRAHAGEHLLLGATKRSMVFKDVLLLGNDYIVPRHCPELAEMSRVSIRILDELVLPFQELQIDDNEYAYLKAIIFFDPDAKGLSDPGKIKRLRSQVQVSLEDYINDRQYDSRGRFGELLLLLPTLQSITWQMIEQIQFIKLFGMAKIDNLLQEMLLGGSPSDAPHAHHPLHPHLMQEHMGTNVIVANTMPTHLSNGQMCEWPRPRGQAATPETPQPSPPGGSGSEPYKLLPGAVATIVKPLSAIPQPTITKQEVI
–	binds	HNF4α-S313A (protein, UniProt P41235 1-474) MRLSKTLVDMDMADYSAALDPAYTTLEFENVQVLTMGNDTSPSEGTNLNAPNSLGVSALCAICGDRATGKHYGASSCDGCKGFFRRSVRKNHMYSCRFSRQCVVDKDKRNQCRYCRLKKCFRAGMKKEAVQNERDRISTRRSSYEDSSLPSINALLQAEVLSRQITSPVSGINGDIRAKKIASIADVCESMKEQLLVLVEWAKYIPAFCELPLDDQVALLRAHAGEHLLLGATKRSMVFKDVLLLGNDYIVPRHCPELAEMSRVSIRILDELVLPFQELQIDDNEYAYLKAIIFFDPDAKGLSDPGKIKRLRAQVQVSLEDYINDRQYDSRGRFGELLLLLPTLQSITWQMIEQIQFIKLFGMAKIDNLLQEMLLGGSPSDAPHAHHPLHPHLMQEHMGTNVIVANTMPTHLSNGQMCEWPRPRGQAATPETPQPSPPGGSGSEPYKLLPGAVATIVKPLSAIPQPTITKQEVI
